These are yes or no findings as the source states them, for the method shown. In cells and extracts the contact can be indirect. Binding can be weak; no strength is given. Sequences can lack the tags named with a protein.
Biological target: T1, FLAG-tagged hTIN2 (human) (UniProt Q9BSI4)
T1 sequence: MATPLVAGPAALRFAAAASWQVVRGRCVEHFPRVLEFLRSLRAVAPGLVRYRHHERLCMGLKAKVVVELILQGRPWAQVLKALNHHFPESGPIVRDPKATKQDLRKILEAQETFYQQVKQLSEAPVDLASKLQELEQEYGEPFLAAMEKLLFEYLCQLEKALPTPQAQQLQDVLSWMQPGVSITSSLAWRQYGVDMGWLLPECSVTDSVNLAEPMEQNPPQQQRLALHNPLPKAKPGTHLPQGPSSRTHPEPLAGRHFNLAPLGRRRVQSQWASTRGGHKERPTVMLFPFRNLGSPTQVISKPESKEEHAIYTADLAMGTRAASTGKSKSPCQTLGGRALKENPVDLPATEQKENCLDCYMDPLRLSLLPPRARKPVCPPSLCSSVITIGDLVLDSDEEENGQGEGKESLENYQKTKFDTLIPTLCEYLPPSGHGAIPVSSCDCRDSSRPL
Assay: co-IP; 293T cells co-transfected, lysed after 48 h in NETN (20 mM Tris pH 8, 1 mM EDTA, 100 mM NaCl, 0.5% NP-40); extracts 1 hour at 4°C with anti-FLAG M2 agarose beads; western blot (anti-GST, anti-V5, anti-FLAG)

binding: binds weakly
Substance: V5-tagged zfTPP1 (zebrafish)
